## Cleaved PARP after 72 h of treatment

All values are for the listed drug together with YM155 (2 nM): COCC[n+]1c2c(n(Cc3cnccn3)c1C)C(=O)c1ccccc1C2=O

Drug key:
lenalidomide: Nc1cccc2c1CN(C1CCC(=O)NC1=O)C2=O (stereo not given) at 5000 nM
FK866: O=C(/C=C/c1cccnc1)NCCCCC1CCN(C(=O)c2ccccc2)CC1 at 50 nM
NVP-TAE684: COc1cc(N2CCC(N3CCN(C)CC3)CC2)ccc1Nc1ncc(Cl)c(Nc2ccccc2S(=O)(=O)C(C)C)n1 at 400 nM
VX-702: NC(=O)c1ccc(N(C(N)=O)c2c(F)cccc2F)nc1-c1ccc(F)cc1F at 2000 nM
dorsomorphin: c1cc(-c2cnn3cc(-c4ccc(OCCN5CCCCC5)cc4)cnc23)ccn1 at 2000 nM
GW0742: Cc1cc(SCc2sc(-c3ccc(C(F)(F)F)c(F)c3)nc2C)ccc1OCC(=O)O at 10000 nM
MK-1775: C=CCn1c(=O)c2cnc(Nc3ccc(N4CCN(C)CC4)cc3)nc2n1-c1cccc(C(C)(C)O)n1 at 100 nM
etoposide: COc1cc([C@@H]2c3cc4c(cc3[C@@H](O[C@@H]3O[C@@H]5CO[C@@H](C)O[C@H]5[C@H](O)[C@H]3O)[C@H]3COC(=O)[C@H]23)OCO4)cc(OC)c1O at 100 nM
dovitinib: CN1CCN(c2ccc3nc(-c4c(N)c5c(F)cccc5[nH]c4=O)[nH]c3c2)CC1 at 500 nM
nilutamide: CC1(C)NC(=O)N(c2ccc([N+](=O)[O-])c(C(F)(F)F)c2)C1=O at 5000 nM
GW2580: COc1ccc(COc2ccc(Cc3cnc(N)nc3N)cc2OC)cc1 at 5000 nM
OSI-906: C[C@]1(O)C[C@@H](c2nc(-c3ccc4ccc(-c5ccccc5)nc4c3)c3c(N)nccn32)C1 at 2000 nM
AZD7762: NC(=O)Nc1cc(-c2cccc(F)c2)sc1C(=O)N[C@H]1CCCNC1 at 100 nM
sorafenib: CNC(=O)c1cc(Oc2ccc(NC(=O)Nc3ccc(Cl)c(C(F)(F)F)c3)cc2)ccn1 at 2000 nM
PF-562271: CN(c1ncccc1CNc1nc(Nc2ccc3c(c2)CC(=O)N3)ncc1C(F)(F)F)S(C)(=O)=O at 400 nM
fingolimod: CCCCCCCCc1ccc(CCC(N)(CO)CO)cc1 at 10000 nM
veliparib: C[C@]1(c2nc3c(C(N)=O)cccc3[nH]2)CCCN1 at 7000 nM
CP-690550: C[C@@H]1CCN(C(=O)CC#N)C[C@@H]1N(C)c1ncnc2[nH]ccc12 at 5000 nM
vincristine: CC[C@]1(O)C[C@H]2CN(CCc3c([nH]c4ccccc34)[C@@](C(=O)OC)(c3cc4c(cc3OC)N(C=O)[C@H]3[C@@](O)(C(=O)OC)[C@H](OC(C)=O)[C@]5(CC)C=CCN6CC[C@]43[C@@H]65)C2)C1 at 0.5 nM
lapatinib: CS(=O)(=O)CCNCc1ccc(-c2ccc3ncnc(Nc4ccc(OCc5cccc(F)c5)c(Cl)c4)c3c2)o1 at 4000 nM
GW441756: Cn1cc(/C=C2\C(=O)Nc3cccnc32)c2ccccc21 at 2000 nM
everolimus: CO[C@H]1C[C@@H]2CC[C@@H](C)[C@@](O)(O2)C(=O)C(=O)N2CCCC[C@H]2C(=O)O[C@H]([C@H](C)C[C@@H]2CC[C@@H](OCCO)[C@H](OC)C2)CC(=O)[C@H](C)/C=C(\C)[C@@H](O)[C@@H](OC)C(=O)[C@H](C)C[C@H](C)/C=C/C=C/C=C/1C at 100 nM
PD173074: CCN(CC)CCCCNc1ncc2cc(-c3cc(OC)cc(OC)c3)c(NC(=O)NC(C)(C)C)nc2n1 at 500 nM
pioglitazone: CCc1ccc(CCOc2ccc(CC3SC(=O)NC3=O)cc2)nc1 (stereo not given) at 10000 nM
RKI-983: C[C@@H](N)c1ccc(C(=O)Nc2ccnc3[nH]ccc23)cc1 at 2000 nM
pazopanib: Cc1ccc(Nc2nccc(N(C)c3ccc4c(C)n(C)nc4c3)n2)cc1S(N)(=O)=O at 2000 nM
sunitinib: CCN(CC)CCNC(=O)c1c(C)[nH]c(/C=C2\C(=O)Nc3ccc(F)cc32)c1C at 2000 nM
CHIR-265: Cn1c(Nc2ccc(C(F)(F)F)cc2)nc2cc(Oc3ccnc(-c4ncc(C(F)(F)F)[nH]4)c3)ccc21 at 400 nM
tanespimycin: C=CCNC1=C2C[C@@H](C)C[C@H](OC)[C@H](O)[C@@H](C)/C=C(\C)[C@H](OC(N)=O)[C@@H](OC)/C=C\C=C(/C)C(=O)NC(=CC1=O)C2=O at 10 nM
vorinostat: O=C(CCCCCCC(=O)Nc1ccccc1)NO at 400 nM
ABT-263: CC1(C)CCC(c2ccc(Cl)cc2)=C(CN2CCN(c3ccc(C(=O)NS(=O)(=O)c4ccc(N[C@H](CCN5CCOCC5)CSc5ccccc5)c(S(=O)(=O)C(F)(F)F)c4)cc3)CC2)C1 at 2000 nM
embelin: CCCCCCCCCCCC1=C(O)C(=O)C=C(O)C1=O at 6000 nM
palbociclib: CC(=O)c1c(C)c2cnc(Nc3ccc(N4CCNCC4)cn3)nc2n(C2CCCC2)c1=O at 200 nM

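Human melanoma cell lines in 1,536-well plates were treated with two drugs together for 72 h, then fixed, stained and imaged. Values are the share of nuclei positive for cleaved PARP as a percentage of the same share in the DMSO control: 100 is the control level, higher means more apoptosis. Every drug was used at one fixed concentration, the higher of two screened. These are primary screening values without error estimates. The marker varies much from line to line, for technical or biological reasons.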 This is part of the screen, not chosen by result.

| Partner | UACC-62 | COLO 792 | WM3526 |
|---|---|---|---|
| dovitinib | 170 | 569 | 875 |
| everolimus | 407 | 390 | 831 |
| etoposide | 150 | 205 | 2010 |
| pazopanib | 165 | 96.3 | 684 |
| PF-562271 | 283 | 362 | 1490 |
| RKI-983 | 290 | 296 | 889 |
| MK-1775 | 149 | 122 | 2410 |
| lapatinib | 324 | 854 | 3190 |
| veliparib | 222 | 171 | 505 |
| lenalidomide | 65.7 | 307 | 979 |
| NVP-TAE684 | 374 | 281 | 2710 |
| VX-702 | 194 | 169 | 401 |
| CP-690550 | 103 | 154 | 54.8 |
| PD173074 | 130 | 411 | 986 |
| fingolimod | 182 | 9480 | 1180 |
| embelin | 66.1 | 342 | 165 |
| CHIR-265 | 261 | 965 | 936 |
| pioglitazone | 196 | 383 | 1120 |
| GW2580 | 142 | 46.2 | 102 |
| sunitinib | 124 | 78.1 | 425 |
| dorsomorphin | 334 | 302 | 615 |
| vincristine | 386 | 191 | 1490 |
| AZD7762 | 243 | 1120 | 4770 |
| nilutamide | 141 | 223 | 447 |
| sorafenib | 154 | 253 | 389 |
| ABT-263 | 363 | 5530 | 3540 |
| tanespimycin | 134 | 486 | 1660 |
| OSI-906 | 252 | 221 | 2450 |
| GW0742 | 27.1 | 96.6 | 520 |
| FK866 | 306 | 1060 | 619 |
| palbociclib | 224 | 314 | 945 |
| GW441756 | 99.5 | 135 | 177 |
| vorinostat | 124 | 113 | 937 |

4 of the entries, repeated:

- embelin : UACC-62: 66.1; COLO 792: 342; WM3526: 165
- RKI-983 : UACC-62: 290; COLO 792: 296; WM3526: 889
- vorinostat : UACC-62: 124; COLO 792: 113; WM3526: 937
- AZD7762 : UACC-62: 243; COLO 792: 1120; WM3526: 4770

Data from the primary screen of doi:10.1371/journal.pone.0140310, rounded.